The supplement of paper PMC10849652
The other results are listed elsewhere or left out.

By UniProt entry, the sequences of proteins in these tests, tags left out. Where a name states a change or a piece, a line headed by the entry shows the natural chain unless it says otherwise.
UniProt Q9UBZ9: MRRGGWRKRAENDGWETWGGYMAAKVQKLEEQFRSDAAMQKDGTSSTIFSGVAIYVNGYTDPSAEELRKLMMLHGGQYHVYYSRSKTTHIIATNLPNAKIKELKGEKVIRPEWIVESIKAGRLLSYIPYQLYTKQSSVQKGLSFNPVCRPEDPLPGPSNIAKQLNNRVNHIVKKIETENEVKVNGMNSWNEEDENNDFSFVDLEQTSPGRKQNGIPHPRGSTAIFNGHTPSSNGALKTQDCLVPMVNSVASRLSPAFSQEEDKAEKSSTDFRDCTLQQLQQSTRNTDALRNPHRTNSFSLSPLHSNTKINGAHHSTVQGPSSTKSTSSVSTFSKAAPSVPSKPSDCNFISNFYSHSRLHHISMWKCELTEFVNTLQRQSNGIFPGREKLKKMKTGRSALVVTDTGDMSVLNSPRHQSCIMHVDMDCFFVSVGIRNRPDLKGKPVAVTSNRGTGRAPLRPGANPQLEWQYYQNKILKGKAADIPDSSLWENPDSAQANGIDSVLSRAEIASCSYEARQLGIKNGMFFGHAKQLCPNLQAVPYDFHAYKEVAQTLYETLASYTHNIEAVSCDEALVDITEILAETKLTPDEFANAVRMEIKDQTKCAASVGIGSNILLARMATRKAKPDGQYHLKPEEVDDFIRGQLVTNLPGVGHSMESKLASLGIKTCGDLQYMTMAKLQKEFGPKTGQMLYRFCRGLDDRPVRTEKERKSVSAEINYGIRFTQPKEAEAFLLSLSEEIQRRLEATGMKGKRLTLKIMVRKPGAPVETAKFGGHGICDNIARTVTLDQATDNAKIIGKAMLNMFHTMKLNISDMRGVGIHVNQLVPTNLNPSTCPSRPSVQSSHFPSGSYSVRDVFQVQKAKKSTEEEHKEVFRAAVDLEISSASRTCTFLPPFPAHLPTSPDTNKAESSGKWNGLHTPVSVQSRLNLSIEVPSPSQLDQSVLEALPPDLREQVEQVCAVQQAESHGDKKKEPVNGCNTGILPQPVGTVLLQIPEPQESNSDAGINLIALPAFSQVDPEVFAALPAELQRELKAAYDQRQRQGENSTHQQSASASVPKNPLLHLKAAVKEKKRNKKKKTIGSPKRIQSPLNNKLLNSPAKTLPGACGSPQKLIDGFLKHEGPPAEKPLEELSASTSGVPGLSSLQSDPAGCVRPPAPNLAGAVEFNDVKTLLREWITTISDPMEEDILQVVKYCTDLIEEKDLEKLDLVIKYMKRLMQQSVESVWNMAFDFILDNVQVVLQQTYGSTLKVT
UniProt Q9Y3B8: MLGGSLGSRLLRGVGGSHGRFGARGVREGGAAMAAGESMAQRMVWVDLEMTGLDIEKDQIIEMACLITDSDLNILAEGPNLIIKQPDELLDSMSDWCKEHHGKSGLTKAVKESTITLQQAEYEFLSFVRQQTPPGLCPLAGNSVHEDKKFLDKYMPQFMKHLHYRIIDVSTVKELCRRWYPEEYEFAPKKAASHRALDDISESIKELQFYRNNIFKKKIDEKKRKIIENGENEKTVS
UniProt Q7Z6E9: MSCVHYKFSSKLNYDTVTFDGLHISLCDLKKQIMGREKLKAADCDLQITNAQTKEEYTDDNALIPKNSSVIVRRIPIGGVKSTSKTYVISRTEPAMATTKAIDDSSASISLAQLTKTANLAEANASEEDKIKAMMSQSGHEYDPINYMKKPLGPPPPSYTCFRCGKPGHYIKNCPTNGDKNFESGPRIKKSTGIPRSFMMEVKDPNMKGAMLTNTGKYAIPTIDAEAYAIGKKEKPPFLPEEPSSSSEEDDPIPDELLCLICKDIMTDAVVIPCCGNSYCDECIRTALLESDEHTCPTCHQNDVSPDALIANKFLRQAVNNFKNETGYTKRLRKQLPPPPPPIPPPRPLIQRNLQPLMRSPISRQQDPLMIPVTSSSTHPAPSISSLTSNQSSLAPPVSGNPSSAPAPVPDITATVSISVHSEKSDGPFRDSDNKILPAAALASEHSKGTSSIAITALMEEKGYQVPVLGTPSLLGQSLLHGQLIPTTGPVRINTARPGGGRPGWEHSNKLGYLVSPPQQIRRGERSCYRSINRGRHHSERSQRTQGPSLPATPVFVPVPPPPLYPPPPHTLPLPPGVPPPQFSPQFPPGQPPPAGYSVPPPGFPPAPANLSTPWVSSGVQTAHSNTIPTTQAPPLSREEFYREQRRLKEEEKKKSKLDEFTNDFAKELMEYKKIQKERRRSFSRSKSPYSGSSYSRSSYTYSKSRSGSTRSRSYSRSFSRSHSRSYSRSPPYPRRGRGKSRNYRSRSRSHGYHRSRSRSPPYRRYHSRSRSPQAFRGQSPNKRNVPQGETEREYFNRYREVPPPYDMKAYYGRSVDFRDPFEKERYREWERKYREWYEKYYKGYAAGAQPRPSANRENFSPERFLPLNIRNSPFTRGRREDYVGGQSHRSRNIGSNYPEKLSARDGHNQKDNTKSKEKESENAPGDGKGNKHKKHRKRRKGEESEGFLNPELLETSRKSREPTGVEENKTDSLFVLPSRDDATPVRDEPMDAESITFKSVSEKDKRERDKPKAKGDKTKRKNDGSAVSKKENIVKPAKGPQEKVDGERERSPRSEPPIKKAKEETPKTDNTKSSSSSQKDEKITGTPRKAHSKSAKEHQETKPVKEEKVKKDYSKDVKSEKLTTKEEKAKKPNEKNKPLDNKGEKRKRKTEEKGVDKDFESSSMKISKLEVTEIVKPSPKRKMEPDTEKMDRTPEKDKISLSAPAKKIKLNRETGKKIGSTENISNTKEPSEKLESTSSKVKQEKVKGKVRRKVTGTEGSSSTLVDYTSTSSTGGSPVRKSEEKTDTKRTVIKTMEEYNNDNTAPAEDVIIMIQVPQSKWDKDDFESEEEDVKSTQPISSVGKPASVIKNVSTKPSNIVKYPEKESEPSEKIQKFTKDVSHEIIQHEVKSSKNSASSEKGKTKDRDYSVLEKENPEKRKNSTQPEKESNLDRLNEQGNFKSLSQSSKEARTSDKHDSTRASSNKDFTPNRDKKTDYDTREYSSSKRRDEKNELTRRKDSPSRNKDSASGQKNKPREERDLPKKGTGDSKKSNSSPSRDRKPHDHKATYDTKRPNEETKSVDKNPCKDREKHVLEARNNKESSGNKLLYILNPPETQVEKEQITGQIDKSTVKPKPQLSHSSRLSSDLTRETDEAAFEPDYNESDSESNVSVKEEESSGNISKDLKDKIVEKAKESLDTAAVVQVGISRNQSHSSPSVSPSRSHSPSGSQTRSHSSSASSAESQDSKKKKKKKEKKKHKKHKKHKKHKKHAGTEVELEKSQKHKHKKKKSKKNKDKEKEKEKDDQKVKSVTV
UniProt Q99708: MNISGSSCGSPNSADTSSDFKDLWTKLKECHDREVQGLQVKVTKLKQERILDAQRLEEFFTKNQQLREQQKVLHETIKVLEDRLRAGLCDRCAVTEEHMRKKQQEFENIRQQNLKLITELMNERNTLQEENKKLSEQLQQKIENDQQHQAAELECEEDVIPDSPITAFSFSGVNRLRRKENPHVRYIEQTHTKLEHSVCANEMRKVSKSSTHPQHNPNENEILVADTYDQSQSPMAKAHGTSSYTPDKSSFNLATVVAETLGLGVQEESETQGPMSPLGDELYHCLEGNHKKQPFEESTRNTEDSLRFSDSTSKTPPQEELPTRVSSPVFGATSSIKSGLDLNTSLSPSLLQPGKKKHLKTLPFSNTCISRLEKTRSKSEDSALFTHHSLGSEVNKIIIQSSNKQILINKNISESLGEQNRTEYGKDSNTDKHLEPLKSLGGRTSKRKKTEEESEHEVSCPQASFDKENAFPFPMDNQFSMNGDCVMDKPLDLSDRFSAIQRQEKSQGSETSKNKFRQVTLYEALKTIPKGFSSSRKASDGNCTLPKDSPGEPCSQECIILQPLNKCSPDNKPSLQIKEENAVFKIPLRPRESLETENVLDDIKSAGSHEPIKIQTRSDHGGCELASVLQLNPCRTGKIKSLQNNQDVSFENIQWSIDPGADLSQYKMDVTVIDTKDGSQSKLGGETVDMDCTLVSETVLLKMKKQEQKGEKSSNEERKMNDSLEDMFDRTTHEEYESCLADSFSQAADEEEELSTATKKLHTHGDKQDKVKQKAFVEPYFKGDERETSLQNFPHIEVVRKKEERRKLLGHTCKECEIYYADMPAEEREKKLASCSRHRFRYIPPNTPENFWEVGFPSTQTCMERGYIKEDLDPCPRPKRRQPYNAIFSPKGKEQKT
UniProt Q99666, whole entry, looked up: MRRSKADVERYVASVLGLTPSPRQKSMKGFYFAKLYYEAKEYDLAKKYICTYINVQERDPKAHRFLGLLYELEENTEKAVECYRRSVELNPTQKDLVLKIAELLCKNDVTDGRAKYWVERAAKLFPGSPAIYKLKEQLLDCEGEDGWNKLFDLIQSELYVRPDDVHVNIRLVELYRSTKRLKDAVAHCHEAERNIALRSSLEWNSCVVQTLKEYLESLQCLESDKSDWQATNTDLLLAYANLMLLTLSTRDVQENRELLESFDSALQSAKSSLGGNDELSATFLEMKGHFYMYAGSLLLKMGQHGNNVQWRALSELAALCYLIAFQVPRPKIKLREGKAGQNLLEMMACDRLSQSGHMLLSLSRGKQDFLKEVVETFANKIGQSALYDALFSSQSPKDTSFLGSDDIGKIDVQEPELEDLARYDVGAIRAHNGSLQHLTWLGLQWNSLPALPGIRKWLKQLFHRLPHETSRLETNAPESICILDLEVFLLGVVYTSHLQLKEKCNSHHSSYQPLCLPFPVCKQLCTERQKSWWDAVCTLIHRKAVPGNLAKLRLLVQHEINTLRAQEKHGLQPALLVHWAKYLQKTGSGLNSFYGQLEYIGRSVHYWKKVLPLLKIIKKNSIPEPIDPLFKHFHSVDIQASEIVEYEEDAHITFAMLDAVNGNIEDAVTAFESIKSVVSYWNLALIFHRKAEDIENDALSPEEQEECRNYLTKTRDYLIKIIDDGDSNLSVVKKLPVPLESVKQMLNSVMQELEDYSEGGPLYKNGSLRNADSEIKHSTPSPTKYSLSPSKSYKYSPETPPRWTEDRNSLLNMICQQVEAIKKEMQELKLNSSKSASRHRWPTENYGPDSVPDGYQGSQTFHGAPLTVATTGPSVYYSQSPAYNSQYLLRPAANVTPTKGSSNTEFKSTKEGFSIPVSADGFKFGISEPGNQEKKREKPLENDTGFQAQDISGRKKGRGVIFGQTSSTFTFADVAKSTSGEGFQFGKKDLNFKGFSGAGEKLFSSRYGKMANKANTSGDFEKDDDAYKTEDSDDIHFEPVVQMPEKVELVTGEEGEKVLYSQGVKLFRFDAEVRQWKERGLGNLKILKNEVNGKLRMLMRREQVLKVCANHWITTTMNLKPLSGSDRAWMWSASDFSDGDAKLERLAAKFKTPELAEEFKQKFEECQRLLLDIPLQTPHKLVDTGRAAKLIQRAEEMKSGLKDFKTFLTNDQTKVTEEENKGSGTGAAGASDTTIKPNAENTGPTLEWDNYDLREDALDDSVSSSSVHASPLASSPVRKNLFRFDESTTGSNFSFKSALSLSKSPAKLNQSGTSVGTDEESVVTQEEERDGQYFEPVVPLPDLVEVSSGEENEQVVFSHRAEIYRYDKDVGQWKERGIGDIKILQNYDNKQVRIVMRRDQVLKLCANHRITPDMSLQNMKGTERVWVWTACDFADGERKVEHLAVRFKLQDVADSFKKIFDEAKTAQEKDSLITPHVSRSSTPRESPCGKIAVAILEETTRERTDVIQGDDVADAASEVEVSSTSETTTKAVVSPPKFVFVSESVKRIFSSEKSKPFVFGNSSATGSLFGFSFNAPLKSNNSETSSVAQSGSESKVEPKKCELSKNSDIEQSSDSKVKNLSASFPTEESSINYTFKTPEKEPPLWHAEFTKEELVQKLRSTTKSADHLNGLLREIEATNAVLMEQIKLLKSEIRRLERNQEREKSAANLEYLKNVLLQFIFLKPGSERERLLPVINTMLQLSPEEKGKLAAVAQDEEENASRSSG
UniProt Q86VR2, whole entry, looked up: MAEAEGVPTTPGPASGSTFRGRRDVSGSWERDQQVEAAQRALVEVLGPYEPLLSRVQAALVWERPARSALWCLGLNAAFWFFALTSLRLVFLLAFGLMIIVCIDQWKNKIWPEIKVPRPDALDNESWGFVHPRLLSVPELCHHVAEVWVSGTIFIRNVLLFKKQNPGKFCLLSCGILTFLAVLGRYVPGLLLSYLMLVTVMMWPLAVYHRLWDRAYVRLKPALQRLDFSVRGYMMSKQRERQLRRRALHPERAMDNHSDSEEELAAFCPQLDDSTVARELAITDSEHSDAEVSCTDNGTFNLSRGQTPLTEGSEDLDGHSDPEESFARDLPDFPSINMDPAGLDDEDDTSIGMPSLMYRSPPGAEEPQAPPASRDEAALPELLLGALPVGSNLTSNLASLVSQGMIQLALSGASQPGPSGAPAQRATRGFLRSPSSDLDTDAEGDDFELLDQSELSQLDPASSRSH

Legend:
Assay in all cases: log2 fold change, soluble protein after heating vs DMSO (PISA); higher = thermal stabilisation; K562 lysate, 10 uM; active = over 0.2 and 3.5 SD of the protein, either way, in both replicates (recomputed)
[1] = compound: CN1CC[C@H](c2c(O)cc(O)c3c(=O)cc(-c4ccccc4Cl)oc23)[C@H](O)C1 [alvocidib]
How it was run: (§1)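 K562 pellets were dounce-homogenised in PBS pH 7.4 containing 1 mM MgCl2, and the crude extract, at 1 mg/mL protein, was exposed to 10 μM compound for 30 min. Aliquots were heated for 3 min across 48°C-58°C, pooled, brought to 0.5% NP-40 at 4°C and spun at 21,000xg for 90 min, with the supernatant taken as soluble protein. TMTpro 16plex LC-MS/MS with equalised channel sums quantified that protein. Values are log-two fold changes in thermal stability relative to solvent controls, taken from duplicates.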

[2] = compound: CN1CCc2c(c3ccccc3n2Cc2ccc(C(=O)NO)cc2)C1 [Tubastatin A]
How it was run: as §1

[3] = compound: CNC(=O)C1=CC=CC=C1NC2=NC(=NC=C2Cl)NC3=C(C=C(C=C3)N4CCOCC4)OC
How it was run: as §1

[4] = compound: CNC(=O)c1ccc(Nc2ncc(C(F)(F)F)c(NCc3nccnc3N(C)S(C)(=O)=O)n2)cc1 [defactinib]
How it was run: as §1

[5] = compound: CNc1nc(-c2ccc3c(N)n[nH]c3c2)cc(N2C[C@@H](C(=O)NC3CCCCC3)CC[C@H]2C)n1
How it was run: as §1

[6] = compound: COC(=O)N[C@@H](C)CNc1nccc(-c2cn(C(C)C)nc2-c2cc(Cl)cc(NS(C)(=O)=O)c2F)n1 [encorafenib]
How it was run: as §1

[7] = compound: COC(=O)[C@H](CCSC)NC(=O)C1=C(C=C(C=C1)NC[C@H](CS)N)C2=CC=CC=C2
How it was run: as §1

[8] = compound: COc1cc(Nc2ncc3c(n2)-c2ccc(Cl)cc2C(c2c(F)cccc2OC)=NC3)ccc1C(=O)O [alisertib]
How it was run: as §1

[9] = compound: COc1cc2nc(-c3cc(F)ccc3O)nc(N[C@@H]3CNC[C@H]3C(C)(C)O)c2cc1OC
How it was run: as §1

[10] = compound: COc1cc2ncnc(Nc3ccc(F)c(Cl)c3)c2cc1OCCCN1CCOCC1 [gefitinib]
How it was run: as §1

[11] = compound: CS(=O)(=O)CCNCc1ccc(-c2ccc3ncnc(Nc4ccc(OCc5cccc(F)c5)c(Cl)c4)c3c2)o1 [lapatinib]
How it was run: as §1

[12] = compound: CS(=O)(=O)N1CCN(Cc2cc3nc(-c4cccc5[nH]ncc45)nc(N4CCOCC4)c3s2)CC1 [pictilisib]
How it was run: as §1

[13] = compound: C[C@@H](Oc1cc(-c2cnn(C3CCNCC3)c2)cnc1N)c1c(Cl)ccc(F)c1Cl [crizotinib]
How it was run: as §1

[14] = compound: C[C@H](C1=CC=C(C=C1)C(=O)NC2=C3C=CNC3=NC=C2)N
How it was run: as §1

[15] = compound: C[C@H](Nc1ncnc2nc[nH]c12)c1cc2cccc(Cl)c2c(=O)n1-c1ccccc1 [duvelisib]
How it was run: as §1

[16] = compound: Cc1cc(Nc2cc(CN3CCOCC3)c3nc(C)c(Cc4ccc(Cl)cc4F)n3n2)n[nH]1 [gandotinib]
How it was run: as §1

[17] = compound: Cc1cc(Nc2cc(N3CCN(C)CC3)nc(Sc3ccc(NC(=O)C4CC4)cc3)n2)n[nH]1 [tozasertib]
How it was run: as §1

[18] = compound: Cc1ccc(-n2nc(C(C)(C)C)cc2NC(=O)Nc2ccc(OCCN3CCOCC3)c3ccccc23)cc1 [doramapimod]
How it was run: as §1

[19] = compound: Cc1ccc(NC(=O)c2ccc(CN3CC[C@H](N(C)C)C3)c(C(F)(F)F)c2)cc1Nc1nccc(-c2cncnc2)n1 [bafetinib]
How it was run: as §1

[20] = compound: Cc1cccc(CC(=O)N2CCc3c2ccc(-c2cn(C)c4ncnc(N)c24)c3F)n1
How it was run: as §1

Measured: log2 fold change

REV1 (UniProt Q9UBZ9)
inactive: [1] 0.122 | [2] -0.061 | [3] -0.021 | [4] -0.001 | [5] -0.147 | [6] -0.094 | [7] -0.044 | [8] 0.05 | [9] -0.061 | [10] -0.01 | [11] -0.05 | [12] 0.001 | [13] 0.108 | [14] 0.05 | [15] -0.043 | [16] -0.133 | [17] -0.023 | [18] 0.003 | [19] 0.04 | [20] -0.165

RBBP5 (UniProt Q15291)
inactive: [1] 0.003 | [2] -0.012 | [3] 0.018 | [4] 0.003 | [5] -0.036 | [6] 0.009 | [7] -0.083 | [8] -0.027 | [9] -0.004 | [10] -0.008 | [11] -0.01 | [12] 0.004 | [13] 0.016 | [14] 0.033 | [15] -0.041 | [16] 0.015 | [17] 0.002 | [18] 0.017 | [19] 0 | [20] -0.014

REXO2 (UniProt Q9Y3B8)
inactive: [1] 0.036 | [2] 0.009 | [3] -0.036 | [4] 0.004 | [5] 0.023 | [6] 0 | [7] -0.02 | [8] 0.015 | [9] 0.014 | [10] -0.03 | [11] -0.038 | [12] -0.032 | [13] 0.047 | [14] 0.028 | [15] 0.019 | [16] -0.05 | [17] 0.061 | [18] -0.026 | [19] -0.019 | [20] -0.076

RBBP6 (UniProt Q7Z6E9)
inactive: [1] 0.009 | [2] -0.03 | [3] 0.057 | [4] -0.012 | [5] 0.023 | [6] 0.083 | [7] -0.164 | [8] 0.029 | [9] -0.015 | [10] -0.021 | [11] -0.028 | [12] -0.01 | [13] -0.018 | [14] -0.007 | [15] 0.03 | [16] 0.033 | [17] 0.035 | [18] 0.086 | [19] -0.025 | [20] -0.023

RBBP8 isoform 2 (UniProt Q99708)
inactive: [1] 0.013 | [2] 0.07 | [3] 0.061 | [4] -0.023 | [5] 0.108 | [6] -0.039 | [7] -0.074 | [8] -0.008 | [9] 0.009 | [10] -0.014 | [11] -0.042 | [12] 0.069 | [13] -0.085 | [14] 0.065 | [15] 0.032 | [16] -0.013 | [17] 0.177 | [18] 0.024 | [19] -0.079 | [20] 0.007

RGPD5 (UniProt Q99666)
inactive: [1] -0.039 | [2] -0.006 | [3] 0.053 | [4] -0.082 | [5] 0.113 | [6] -0.054 | [7] 0.048 | [8] 0.103 | [9] -0.061 | [10] -0.057 | [11] 0 | [12] 0.081 | [13] 0 | [14] -0.02 | [15] 0.016 | [16] 0.051 | [17] -0.028 | [18] -0.002 | [19] -0.019 | [20] -0.009

RCL1 (UniProt Q9Y2P8)
inactive: [1] -0.041 | [2] -0.073 | [3] 0.005 | [4] 0.01 | [5] -0.03 | [6] 0.014 | [7] 0.032 | [8] -0.006 | [9] 0.01 | [10] 0.051 | [11] -0.041 | [12] 0.033 | [13] -0.041 | [14] -0.073 | [15] 0.006 | [16] -0.028 | [17] -0.013 | [18] 0.029 | [19] -0.027 | [20] 0.113

RETREG3 (UniProt Q86VR2)
inactive: [1] 0 | [2] -0.05 | [3] -0.01 | [4] -0.031 | [5] 0.002 | [6] 0.024 | [7] -0.12 | [8] -0.006 | [9] -0.069 | [10] -0.025 | [11] -0.098 | [12] -0.059 | [13] -0.183 | [14] 0.026 | [15] 0.065 | [16] -0.11 | [17] 0.026 | [18] 0.014 | [19] -0.089 | [20] 0.013
